Measured values reported in article PMC12645938.
Results are given in words; binding and its absence hold for the method and conditions named. In cells and extracts the contact can be indirect. Some results given as binding are weak or reduced against the parent protein; the word gives no strength.

Amino acid sequences for entries named in this document (tags omitted).
UniProt P05556: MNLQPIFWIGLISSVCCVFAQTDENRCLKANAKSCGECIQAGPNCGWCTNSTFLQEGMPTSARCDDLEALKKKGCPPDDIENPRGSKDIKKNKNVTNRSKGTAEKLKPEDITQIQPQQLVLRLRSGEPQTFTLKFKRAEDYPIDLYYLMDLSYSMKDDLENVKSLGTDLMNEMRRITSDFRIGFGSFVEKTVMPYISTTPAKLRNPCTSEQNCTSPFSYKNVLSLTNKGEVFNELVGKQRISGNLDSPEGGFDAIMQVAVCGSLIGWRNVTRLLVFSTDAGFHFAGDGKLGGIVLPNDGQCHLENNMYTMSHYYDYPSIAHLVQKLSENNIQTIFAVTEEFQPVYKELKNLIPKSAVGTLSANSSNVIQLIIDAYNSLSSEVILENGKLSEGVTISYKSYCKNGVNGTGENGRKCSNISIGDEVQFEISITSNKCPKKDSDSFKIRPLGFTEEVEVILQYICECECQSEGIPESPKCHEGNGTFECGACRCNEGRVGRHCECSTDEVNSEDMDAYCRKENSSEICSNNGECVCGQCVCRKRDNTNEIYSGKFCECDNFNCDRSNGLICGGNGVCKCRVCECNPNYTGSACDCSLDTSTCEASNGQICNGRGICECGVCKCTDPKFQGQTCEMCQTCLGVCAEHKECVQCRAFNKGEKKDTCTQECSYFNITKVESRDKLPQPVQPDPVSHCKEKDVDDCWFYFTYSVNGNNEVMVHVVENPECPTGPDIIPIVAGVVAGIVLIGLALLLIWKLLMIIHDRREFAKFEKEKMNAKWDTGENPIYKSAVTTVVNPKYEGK

Biological target: endogenous ITGβ1 in HEK293T cells (human (endogenous in HEK293T)) (UniProt P05556)
Assay: co-IP; endogenous proteins of confluent HEK293T cells; magnetic beads with anti-MDA5 or anti-ITGβ1 antibody (Fig. 9B)

B1: endogenous MDA5 in HEK293T cells (protein, UniProt Q9BYX4 1-1025)
chain: MSNGYSTDENFRYLISCFRARVKMYIQVEPVLDYLTFLPAEVKEQIQRTVATSGNMQAVELLLSTLEKGVWHLGWTREFVEALRRTGSPLAARYMNPELTDLPSPSFENAHDEYLQLLNLLQPTLVDKLLVRDVLDKCMEEELLTIEDRNRIAAAENNGNESGVRELLKRIVQKENWFSAFLNVLRQTGNNELVQELTGSDCSESNAEIENLSQVDGPQVEEQLLSTTVQPNLEKEVWGMENNSSESSFADSSVVSESDTSLAEGSVSCLDESLGHNSNMGSDSGTMGSDSDEENVAARASPEPELQLRPYQMEVAQPALEGKNIIICLPTGSGKTRVAVYIAKDHLDKKKKASEPGKVIVLVNKVLLVEQLFRKEFQPFLKKWYRVIGLSGDTQLKISFPEVVKSCDIIISTAQILENSLLNLENGEDAGVQLSDFSLIIIDECHHTNKEAVYNNIMRHYLMQKLKNNRLKKENKPVIPLPQILGLTASPGVGGATKQAKAEEHILKLCANLDAFTIKTVKENLDQLKNQIQEPCKKFAIADATREDPFKEKLLEIMTRIQTYCQMSPMSDFGTQPYEQWAIQMEKKAAKEGNRKERVCAEHLRKYNEALQINDTIRMIDAYTHLETFYNEEKDKKFAVIEDDSDEGGDDEYCDGDEDEDDLKKPLKLDETDRFLMTLFFENNKMLKRLAENPEYENEKLTKLRNTIMEQYTRTEESARGIIFTKTRQSAYALSQWITENEKFAEVGVKAHHLIGAGHSSEFKPMTQNEQKEVISKFRTGKINLLIATTVAEEGLDIKECNIVIRYGLVTNEIAMVQARGRARADESTYVLVAHSGSGVIEHETVNDFREKMMYKAIHCVQNMKPEEYAHKILELQMQSIMEKKMKTKRNIAKHYKNNPSLITFLCKNCSVLACSGEDIHVIEKMHHVNMTPEFKELYIVRENKALQKKCADYQINGEIICKCGQAWGTMMVHKGLDLPCLKIRNFVVVFKNNSTKKQYKKWVELPITFPNLDYSECCLFSDED
binding: binds
